Experimental data from the supplement of paper PMC6411743.
± gives the standard deviation of the averaged measurements. The list shows a part of the results, in another mix than the full data.

Amino acid sequences for entries named in this document (tags omitted). A change or cut given only in a name is not applied to a line headed by its entry.
UniProt O75369, whole entry: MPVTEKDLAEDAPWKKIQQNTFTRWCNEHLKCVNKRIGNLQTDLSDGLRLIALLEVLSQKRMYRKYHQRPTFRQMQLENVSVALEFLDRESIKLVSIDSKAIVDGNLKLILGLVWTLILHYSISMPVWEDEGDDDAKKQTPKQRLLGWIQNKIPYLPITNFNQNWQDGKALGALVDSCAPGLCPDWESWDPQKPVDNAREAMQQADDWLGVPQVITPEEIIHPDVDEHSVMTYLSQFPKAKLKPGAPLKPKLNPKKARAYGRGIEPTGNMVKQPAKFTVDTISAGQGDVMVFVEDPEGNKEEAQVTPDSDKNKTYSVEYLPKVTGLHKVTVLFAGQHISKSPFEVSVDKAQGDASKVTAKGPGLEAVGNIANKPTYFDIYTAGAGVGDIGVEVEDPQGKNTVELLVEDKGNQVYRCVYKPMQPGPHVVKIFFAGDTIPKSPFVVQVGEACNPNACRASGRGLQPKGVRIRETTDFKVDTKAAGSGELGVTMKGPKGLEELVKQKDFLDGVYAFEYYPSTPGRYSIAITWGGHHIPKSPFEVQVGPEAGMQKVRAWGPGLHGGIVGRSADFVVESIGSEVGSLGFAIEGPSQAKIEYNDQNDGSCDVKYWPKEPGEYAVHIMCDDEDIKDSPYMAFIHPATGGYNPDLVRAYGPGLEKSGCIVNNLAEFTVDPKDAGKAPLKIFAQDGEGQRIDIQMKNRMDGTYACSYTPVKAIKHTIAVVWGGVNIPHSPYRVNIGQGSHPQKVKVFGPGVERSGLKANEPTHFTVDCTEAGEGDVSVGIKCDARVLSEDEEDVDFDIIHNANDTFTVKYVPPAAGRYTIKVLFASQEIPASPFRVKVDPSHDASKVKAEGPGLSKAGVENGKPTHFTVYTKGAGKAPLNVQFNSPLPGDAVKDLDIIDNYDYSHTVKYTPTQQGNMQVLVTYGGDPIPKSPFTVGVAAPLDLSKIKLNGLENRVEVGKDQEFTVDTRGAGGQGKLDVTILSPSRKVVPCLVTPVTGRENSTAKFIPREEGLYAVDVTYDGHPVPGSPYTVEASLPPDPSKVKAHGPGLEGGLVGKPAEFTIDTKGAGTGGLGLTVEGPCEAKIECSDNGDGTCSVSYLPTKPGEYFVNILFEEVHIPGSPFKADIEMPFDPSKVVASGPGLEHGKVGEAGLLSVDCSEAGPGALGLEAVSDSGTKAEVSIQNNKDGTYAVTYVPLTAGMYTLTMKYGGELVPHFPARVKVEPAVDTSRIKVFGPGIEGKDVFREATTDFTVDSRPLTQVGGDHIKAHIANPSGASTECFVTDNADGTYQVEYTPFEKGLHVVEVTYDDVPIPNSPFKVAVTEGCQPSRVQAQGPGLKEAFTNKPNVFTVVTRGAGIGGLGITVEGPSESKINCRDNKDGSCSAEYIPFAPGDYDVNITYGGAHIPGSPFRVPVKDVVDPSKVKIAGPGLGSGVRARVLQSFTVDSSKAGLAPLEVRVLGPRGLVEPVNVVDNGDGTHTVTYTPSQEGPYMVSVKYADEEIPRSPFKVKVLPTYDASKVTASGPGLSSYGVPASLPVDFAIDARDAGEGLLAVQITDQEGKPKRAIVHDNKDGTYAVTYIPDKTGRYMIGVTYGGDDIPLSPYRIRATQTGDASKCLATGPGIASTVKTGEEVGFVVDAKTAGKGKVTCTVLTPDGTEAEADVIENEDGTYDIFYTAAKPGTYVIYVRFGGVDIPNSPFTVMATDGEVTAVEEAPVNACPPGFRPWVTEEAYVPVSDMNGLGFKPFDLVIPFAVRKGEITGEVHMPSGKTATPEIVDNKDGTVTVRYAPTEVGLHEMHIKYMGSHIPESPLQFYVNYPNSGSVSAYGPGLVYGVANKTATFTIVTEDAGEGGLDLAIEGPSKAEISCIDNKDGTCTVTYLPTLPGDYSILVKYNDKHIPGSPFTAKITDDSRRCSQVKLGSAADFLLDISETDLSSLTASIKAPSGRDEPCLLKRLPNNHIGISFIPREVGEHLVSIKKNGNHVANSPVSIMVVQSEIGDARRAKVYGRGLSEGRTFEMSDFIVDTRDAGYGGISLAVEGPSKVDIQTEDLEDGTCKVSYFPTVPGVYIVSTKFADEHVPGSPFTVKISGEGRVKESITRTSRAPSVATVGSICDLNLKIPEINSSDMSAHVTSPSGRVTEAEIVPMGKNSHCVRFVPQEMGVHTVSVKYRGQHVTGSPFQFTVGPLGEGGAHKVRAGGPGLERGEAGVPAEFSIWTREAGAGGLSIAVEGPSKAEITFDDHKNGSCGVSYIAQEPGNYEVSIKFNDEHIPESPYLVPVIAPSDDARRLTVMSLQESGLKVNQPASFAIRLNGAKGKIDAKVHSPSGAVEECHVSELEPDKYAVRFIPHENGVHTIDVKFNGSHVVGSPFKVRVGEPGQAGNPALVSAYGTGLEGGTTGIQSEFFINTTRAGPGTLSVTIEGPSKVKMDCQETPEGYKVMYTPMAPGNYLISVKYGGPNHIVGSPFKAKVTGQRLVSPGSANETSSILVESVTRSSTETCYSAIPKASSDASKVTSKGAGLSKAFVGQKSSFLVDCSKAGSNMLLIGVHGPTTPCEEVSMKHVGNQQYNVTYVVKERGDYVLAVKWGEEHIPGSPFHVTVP
UniProt O75534: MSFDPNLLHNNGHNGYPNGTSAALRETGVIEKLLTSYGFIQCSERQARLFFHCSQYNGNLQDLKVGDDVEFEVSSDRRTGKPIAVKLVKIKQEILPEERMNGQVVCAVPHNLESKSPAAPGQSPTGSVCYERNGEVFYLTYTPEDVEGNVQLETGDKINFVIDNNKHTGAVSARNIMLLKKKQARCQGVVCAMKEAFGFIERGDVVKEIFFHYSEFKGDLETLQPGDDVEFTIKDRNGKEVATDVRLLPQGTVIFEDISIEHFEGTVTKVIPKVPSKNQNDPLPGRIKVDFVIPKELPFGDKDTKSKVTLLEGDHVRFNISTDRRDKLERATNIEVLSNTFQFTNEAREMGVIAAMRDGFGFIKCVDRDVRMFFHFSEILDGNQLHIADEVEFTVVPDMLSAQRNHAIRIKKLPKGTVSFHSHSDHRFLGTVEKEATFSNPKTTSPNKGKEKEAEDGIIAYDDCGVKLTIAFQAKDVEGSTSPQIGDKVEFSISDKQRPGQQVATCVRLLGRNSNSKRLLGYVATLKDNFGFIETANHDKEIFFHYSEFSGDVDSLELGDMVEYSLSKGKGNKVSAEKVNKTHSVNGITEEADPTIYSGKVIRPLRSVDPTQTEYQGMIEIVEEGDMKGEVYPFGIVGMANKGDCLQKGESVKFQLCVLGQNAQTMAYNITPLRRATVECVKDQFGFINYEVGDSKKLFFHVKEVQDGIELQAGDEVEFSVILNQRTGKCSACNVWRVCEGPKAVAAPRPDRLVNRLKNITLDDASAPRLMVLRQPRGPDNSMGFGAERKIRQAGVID
UniProt O75152: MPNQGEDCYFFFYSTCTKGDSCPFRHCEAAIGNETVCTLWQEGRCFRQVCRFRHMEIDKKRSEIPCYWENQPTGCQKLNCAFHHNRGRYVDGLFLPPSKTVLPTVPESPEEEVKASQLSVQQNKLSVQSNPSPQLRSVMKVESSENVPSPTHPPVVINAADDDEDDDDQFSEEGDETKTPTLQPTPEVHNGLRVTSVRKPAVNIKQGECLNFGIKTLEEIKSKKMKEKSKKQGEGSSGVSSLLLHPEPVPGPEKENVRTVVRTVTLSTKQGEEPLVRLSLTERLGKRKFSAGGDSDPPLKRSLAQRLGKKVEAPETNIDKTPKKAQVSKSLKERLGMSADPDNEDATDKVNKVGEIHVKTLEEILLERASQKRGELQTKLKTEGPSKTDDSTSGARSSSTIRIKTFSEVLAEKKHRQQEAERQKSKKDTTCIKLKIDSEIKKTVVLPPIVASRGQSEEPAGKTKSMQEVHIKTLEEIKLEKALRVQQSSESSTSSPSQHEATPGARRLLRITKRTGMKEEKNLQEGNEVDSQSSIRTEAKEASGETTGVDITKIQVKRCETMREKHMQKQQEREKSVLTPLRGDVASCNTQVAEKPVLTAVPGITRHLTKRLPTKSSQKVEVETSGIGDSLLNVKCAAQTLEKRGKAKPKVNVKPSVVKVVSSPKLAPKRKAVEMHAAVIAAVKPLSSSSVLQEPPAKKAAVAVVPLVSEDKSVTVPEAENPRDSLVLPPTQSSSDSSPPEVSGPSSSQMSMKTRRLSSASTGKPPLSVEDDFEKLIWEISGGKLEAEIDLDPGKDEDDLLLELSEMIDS
UniProt O75143: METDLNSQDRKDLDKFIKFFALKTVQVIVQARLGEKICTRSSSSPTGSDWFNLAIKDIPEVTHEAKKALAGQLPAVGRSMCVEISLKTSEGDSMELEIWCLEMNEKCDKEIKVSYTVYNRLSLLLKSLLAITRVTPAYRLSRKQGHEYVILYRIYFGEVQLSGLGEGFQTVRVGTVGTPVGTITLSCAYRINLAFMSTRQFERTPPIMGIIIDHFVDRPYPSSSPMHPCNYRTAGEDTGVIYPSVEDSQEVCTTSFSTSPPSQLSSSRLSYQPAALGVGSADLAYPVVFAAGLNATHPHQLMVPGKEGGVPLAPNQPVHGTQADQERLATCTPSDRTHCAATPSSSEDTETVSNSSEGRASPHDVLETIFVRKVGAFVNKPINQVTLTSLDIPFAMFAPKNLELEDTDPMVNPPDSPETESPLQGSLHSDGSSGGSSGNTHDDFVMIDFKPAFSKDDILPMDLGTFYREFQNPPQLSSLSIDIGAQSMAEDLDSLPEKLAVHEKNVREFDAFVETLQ
UniProt O43924: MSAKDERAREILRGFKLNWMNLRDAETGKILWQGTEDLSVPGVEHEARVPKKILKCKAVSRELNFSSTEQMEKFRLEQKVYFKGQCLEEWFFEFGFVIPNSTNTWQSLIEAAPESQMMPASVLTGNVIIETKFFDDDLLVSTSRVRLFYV
UniProt O75533, whole entry: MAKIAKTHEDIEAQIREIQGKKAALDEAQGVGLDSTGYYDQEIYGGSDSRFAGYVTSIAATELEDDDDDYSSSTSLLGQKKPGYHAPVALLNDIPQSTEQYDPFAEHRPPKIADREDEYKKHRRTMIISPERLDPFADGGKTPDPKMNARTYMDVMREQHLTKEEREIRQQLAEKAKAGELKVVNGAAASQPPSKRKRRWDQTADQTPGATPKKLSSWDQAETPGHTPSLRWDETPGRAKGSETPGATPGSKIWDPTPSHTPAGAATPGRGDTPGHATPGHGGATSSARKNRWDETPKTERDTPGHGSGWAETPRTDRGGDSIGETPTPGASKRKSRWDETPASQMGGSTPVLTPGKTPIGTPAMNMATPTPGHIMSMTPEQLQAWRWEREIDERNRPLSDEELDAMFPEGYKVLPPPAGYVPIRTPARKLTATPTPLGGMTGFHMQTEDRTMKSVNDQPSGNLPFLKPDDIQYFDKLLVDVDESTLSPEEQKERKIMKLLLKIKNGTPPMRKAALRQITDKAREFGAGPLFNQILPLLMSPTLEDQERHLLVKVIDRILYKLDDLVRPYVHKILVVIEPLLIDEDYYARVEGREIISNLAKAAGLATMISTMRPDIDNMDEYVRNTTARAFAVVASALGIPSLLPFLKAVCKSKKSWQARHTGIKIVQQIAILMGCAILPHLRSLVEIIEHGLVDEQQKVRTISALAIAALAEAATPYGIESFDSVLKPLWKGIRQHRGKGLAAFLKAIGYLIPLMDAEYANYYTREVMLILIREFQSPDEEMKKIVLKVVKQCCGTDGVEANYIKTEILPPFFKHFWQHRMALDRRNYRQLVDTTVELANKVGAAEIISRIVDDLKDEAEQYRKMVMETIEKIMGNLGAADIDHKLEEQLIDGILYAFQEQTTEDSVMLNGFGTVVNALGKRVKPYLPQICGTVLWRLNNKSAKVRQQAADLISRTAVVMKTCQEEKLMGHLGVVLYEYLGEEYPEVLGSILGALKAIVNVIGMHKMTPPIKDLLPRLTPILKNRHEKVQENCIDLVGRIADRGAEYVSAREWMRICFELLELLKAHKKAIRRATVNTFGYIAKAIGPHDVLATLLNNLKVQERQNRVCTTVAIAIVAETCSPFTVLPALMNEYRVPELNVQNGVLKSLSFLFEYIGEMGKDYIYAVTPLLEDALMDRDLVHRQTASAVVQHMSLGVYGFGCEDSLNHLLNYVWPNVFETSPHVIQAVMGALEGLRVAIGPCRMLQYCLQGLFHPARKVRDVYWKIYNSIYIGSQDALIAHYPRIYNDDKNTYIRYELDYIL

Compound: Nc1ncnc2c1ncn2[C@@H]1O[C@H](COP(=O)(O)OP(=O)(O)NP(=O)(O)O)[C@@H](O)[C@H]1O [adenylyl imidodiphosphate]
Assay: NP40-soluble protein abundance relative to vehicle (solubility fold change) (ratio); higher = more soluble protein in presence of AMP-PNP
Method in brief: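 Eight concentrations, 0.1 to 10 mM, were tested on Jurkat crude lysate for 10 min at room temperature and then 3 min at 37 °C, in three independent experiments. The lysate was solubilised with 0.8% NP40 and benzonase, ultracentrifuged, and the supernatant TMT-labelled for LC-MS/MS. Each value is the fold change against the detergent-processed vehicle in its own replicate, from vsn-normalised intensities.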

Target	NP40-soluble protein abundance (concentration: 1mM)	NP40-soluble protein abundance (concentration: 2mM)	NP40-soluble protein abundance (concentration: 4mM)	NP40-soluble protein abundance (concentration: 6mM)	NP40-soluble protein abundance (concentration: 8mM)	NP40-soluble protein abundance (concentration: 10mM)
UniProt O75369-8|O75369-9|O75369 and related entries	1.01 ± 0.02	1.04 ± 0.029	0.99 ± 0.02	0.987 ± 0.03	0.951 ± 0.016	0.968 ± 0.034
VPS26A (UniProt O75436)	0.946 ± 0.045	0.861 ± 0.062	0.895 ± 0.019	0.872 ± 0.032	0.931 ± 0.046	0.829 ± 0.02
UniProt O95243-2|O95243-5|O95243	1.009 ± 0.01	1 ± 0.027	1.05 ± 0.037	1.031 ± 0.0075	1.04 ± 0.011	1.068 ± 0.0071
NDUFS3 (UniProt O75489)	1.01 ± 0.048	0.972 ± 0.077	0.988 ± 0.08	0.926 ± 0.074	0.961 ± 0.089	0.943 ± 0.1
STAMBP (UniProt O95630)	1.02 ± 0.02	0.993 ± 0.012	0.995 ± 0.03	0.984 ± 0.018	0.964 ± 0.033	0.948 ± 0.06
ENDOD1 (UniProt O94919)	1.06 ± 0.039	1.06 ± 0.029	1.05 ± 0.069	1.01 ± 0.025	1 ± 0.041	1.02 ± 0.062
UniProt O75534 and related entries	0.986 ± 0.023	0.955 ± 0.047	0.9849 ± 0.0038	1 ± 0.029	0.993 ± 0.034	0.984 ± 0.024
ZC3H11A (UniProt O75152)	0.86 ± 0.11	0.883 ± 0.1	0.853 ± 0.13	0.936 ± 0.094	0.933 ± 0.098	1.03 ± 0.098
UniProt O75312	1.006 ± 0.0071	1.04 ± 0.052	1.01 ± 0.019	0.987 ± 0.026	0.958 ± 0.0055	0.963 ± 0.042
UniProt O95169 and related entries	0.9691 ± 0.0052	1 ± 0.057	0.916 ± 0.027	0.918 ± 0.045	0.922 ± 0.043	0.893 ± 0.037
DKC1 (UniProt O60832)	1.049 ± 0.0097	1.1 ± 0.057	1.13 ± 0.028	1.21 ± 0.051	1.29 ± 0.046	1.36 ± 0.083
UniProt O75143 and related entries	1.05 ± 0.037	1.01 ± 0.016	1.03 ± 0.017	0.96 ± 0.045	0.979 ± 0.057	0.974 ± 0.042
DNAJC13 (UniProt O75165)	1.02 ± 0.049	1 ± 0.055	1.08 ± 0.054	1.11 ± 0.068	1.17 ± 0.1	1.19 ± 0.16
UniProt O95425 and related entries	0.952 ± 0.093	0.959 ± 0.14	0.929 ± 0.092	1.002 ± 0.0039	0.998 ± 0.046	0.999 ± 0.064
UniProt O43924 and related entries	1.01 ± 0.033	0.928 ± 0.1	1 ± 0.051	1 ± 0.02	1.02 ± 0.046	0.98 ± 0.042
UniProt O95071 and related entries	0.989 ± 0.084	0.957 ± 0.065	0.95 ± 0.071	0.904 ± 0.086	0.864 ± 0.059	0.892 ± 0.088
UniProt O95696 and related entries	1.003 ± 0.006	1.04 ± 0.046	0.99 ± 0.024	1.03 ± 0.016	1.026 ± 0.0089	1.04 ± 0.013
UniProt O95248-4|G5E933 and related entries	0.985 ± 0.031	0.953 ± 0.067	0.994 ± 0.039	0.96 ± 0.015	0.963 ± 0.04	0.976 ± 0.041
PCF11 (UniProt O94913)	1.036 ± 0.008	1.09 ± 0.061	1.08 ± 0.011	1.07 ± 0.044	1.05 ± 0.011	1.1 ± 0.019
UniProt O75398-5|O75398 and related entries	1.03 ± 0.061	1.06 ± 0.029	1.02 ± 0.016	1.03 ± 0.028	1.03 ± 0.011	1.04 ± 0.015
SF3B1 (UniProt O75533)	0.984 ± 0.017	0.9945 ± 0.0013	1.02 ± 0.018	1.05 ± 0.019	1.07 ± 0.033	1.08 ± 0.077
NDUFA7 (UniProt O95182)	0.963 ± 0.028	0.982 ± 0.023	0.921 ± 0.046	0.951 ± 0.026	0.901 ± 0.042	0.922 ± 0.043
HERC2 (UniProt O95714)	1.02 ± 0.09	0.922 ± 0.17	1.04 ± 0.031	1.11 ± 0.032	1.15 ± 0.12	1.07 ± 0.15
UniProt O60508 and related entries	1.03 ± 0.018	1.07 ± 0.029	1.06 ± 0.026	1.09 ± 0.059	1.08 ± 0.044	1.13 ± 0.056
UniProt O95297 and related entries	0.937 ± 0.034	0.992 ± 0.086	0.954 ± 0.033	1 ± 0.049	0.957 ± 0.026	0.998 ± 0.068
UniProt O94903	1.03 ± 0.03	1.09 ± 0.059	1.03 ± 0.063	0.998 ± 0.021	0.98 ± 0.024	1.05 ± 0.078
UniProt O95298 and related entries	0.958 ± 0.11	0.949 ± 0.036	0.902 ± 0.068	0.82 ± 0.018	0.852 ± 0.017	0.756 ± 0.042
UniProt O94763	1.05 ± 0.048	1.13 ± 0.06	1.05 ± 0.05	1.02 ± 0.1	0.962 ± 0.063	1.02 ± 0.059
UniProt O95218-2	1.02 ± 0.046	1.09 ± 0.076	1 ± 0.076	0.983 ± 0.012	0.948 ± 0.048	0.992 ± 0.038
RAD21 (UniProt O60216)	1.01 ± 0.036	1.02 ± 0.047	0.998 ± 0.022	1.01 ± 0.022	0.961 ± 0.027	0.993 ± 0.04

Look-ups from the entries so far.
Value for UniProt O60508 and related entries under NP40-soluble protein abundance (concentration: 8mM): 1.08 ± 0.044
Value for UniProt O94763 under NP40-soluble protein abundance (concentration: 10mM): 1.02 ± 0.059
